Measurements reported in US20220347324A1 (Bristol-Myers Squibb, published 2022).
No constants are given. Whether binding was seen depends on the method and setting. Some binding calls cover weakened binding; strength is not graded here. Values belong to the binder of their own block, whether it stands above or below them.

The chains behind the UniProt entries cited, without tags or fusion partners. Residues count along the entry.
UniProt Q9NZQ7, residues 19-290: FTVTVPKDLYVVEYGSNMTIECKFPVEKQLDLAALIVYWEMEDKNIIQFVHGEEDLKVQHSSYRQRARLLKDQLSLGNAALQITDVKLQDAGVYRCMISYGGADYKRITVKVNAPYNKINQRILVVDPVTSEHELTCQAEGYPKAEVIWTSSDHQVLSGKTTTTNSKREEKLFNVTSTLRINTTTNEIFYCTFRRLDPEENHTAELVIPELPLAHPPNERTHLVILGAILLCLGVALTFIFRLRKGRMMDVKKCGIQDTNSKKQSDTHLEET

Columns and labels:
[1] = biological target: human PD-L1 expressed on cells (hPD-L1-positive L2987 cells, L2987 xenografts, human lung tumor tissue) (human) (UniProt Q9NZQ7); assay: PET image of mice with bilateral L2987 / HT-29 xenografts, summed 0 to 2 h
[2] = biological target: human PD-L1 expressed on cells (hPD-L1-positive L2987 cells, L2987 xenografts, human lung tumor tissue) (human) (UniProt Q9NZQ7); assay: PET time-activity curves of tumor regions of interest, 0 to 120 min after injection of 64Cu-A02
[3] = biological target: human PD-L1 expressed on cells (hPD-L1-positive L2987 cells, L2987 xenografts, human lung tumor tissue) (human) (UniProt Q9NZQ7); assay: in vivo PET, FIG. 4A
[4] = biological target: human PD-L1 expressed on cells (hPD-L1-positive L2987 cells, L2987 xenografts, human lung tumor tissue) (human) (UniProt Q9NZQ7); assay: displacement of 0.25 nM 18F-DBCO-A02 from tissue sections by 0.025, 0.25, 2.5 and 25 nM cold A02, autoradiography
[5] = biological target: human PD-L1 expressed on cells (hPD-L1-positive L2987 cells, L2987 xenografts, human lung tumor tissue) (human) (UniProt Q9NZQ7); assay: in vivo PET, competition with 64Cu-A02
[6] = biological target: human PD-L1 expressed on cells (hPD-L1-positive L2987 cells, L2987 xenografts, human lung tumor tissue) (human) (UniProt Q9NZQ7); assay: in vivo blocking of 64Cu-A02 uptake in L2987 xenografts by unlabeled A02, PET time-activity curves
[7] = biological target: human PD-L1 expressed on cells (hPD-L1-positive L2987 cells, L2987 xenografts, human lung tumor tissue) (human) (UniProt Q9NZQ7); assay: in vivo blocking of 64Cu-A02-NODAGA uptake in L2987 xenografts by co-injected unlabeled A02 (3 mg/kg according to the text), PET
[8] = biological target: human PD-L1 expressed on cells (hPD-L1-positive L2987 cells, L2987 xenografts, human lung tumor tissue) (human) (UniProt Q9NZQ7); assay: in vitro autoradiography, 0.025 to 25 nM cold A02 against 0.25 nM 18F-A02 on xenograft and human lung tumor sections
[9] = biological target: human PD-L1 expressed on cells (hPD-L1-positive L2987 cells, L2987 xenografts, human lung tumor tissue) (human) (UniProt Q9NZQ7); assay: radiotracer cell binding, FIG. 3
[10] = biological target: human PD-L1 expressed on cells (hPD-L1-positive L2987 cells, L2987 xenografts, human lung tumor tissue) (human) (UniProt Q9NZQ7); assay: cell-associated radioactivity by gamma counter after incubating cells with the tracer on ice, 3 washes
[11] = biological target: human PD-L1 expressed on cells (hPD-L1-positive L2987 cells, L2987 xenografts, human lung tumor tissue) (human) (UniProt Q9NZQ7); assay: competition on L2987 cells against 64Cu-NODAGA-E01; cold E01 at one concentration (450 nM according to the text), gamma counter

binding [1]: binds
binding [2]: binds
binding [3]: binds
B1: 64Cu-A02-NODAGA (designed binder)
chain: GVSDVPRDLEVVAATPTSLLISWSYDGPIDRYYRITYGETGGNSPVQEFTVPPDQKTATISGLKPGVDYTITVYAVRLEEAHYNREFPISINYRTPC
modifications: C-terminal cysteine linked by maleimide to NODAGA chelating 64Cu
notes: A02 with C-terminal PC; also called NODAGA-64Cu-labeled A02 anti-PD-L1 Adnectin

binding [4]: binds
binding [5]: binds
binding [6]: binds
binding [7]: binds
binding [8]: binds
B2: cold (unlabeled) A02 Adnectin (designed binder)
chain: GVSDVPRDLEVVAATPTSLLISWSYDGPIDRYYRITYGETGGNSPVQEFTVPPDQKTATISGLKPGVDYTITVYAVRLEEAHYNREFPISINYRTPC

binding [9]: binds
binding [10]: binds
B3: 64Cu-E01-NODAGA (designed binder)
chain: GVSDVPRDLEVVAATPTSLLISWRAQLSPSFYYRITYGETGGNSPVQEFTVPNDVMTATISGLKPGVDYTITVYAVTTHGVYFYSPISINYRTPC
modifications: C-terminal cysteine linked by maleimide to NODAGA chelating 64Cu
notes: E01 with C-terminal PC (ADX_5417_E01 w/ N leader and modified C-terminus); also called 64Cu-E01 anti-PD-L1 Adnectin

binding [11]: binds
B4: cold (unlabeled) E01 Adnectin (designed binder)
chain: GVSDVPRDLEVVAATPTSLLISWRAQLSPSFYYRITYGETGGNSPVQEFTVPNDVMTATISGLKPGVDYTITVYAVTTHGVYFYSPISINYRTPC
